Patent US9492434B2, “Combination compositions and methods of treatment” (University of Florida Research Foundation, Inc., priority 2011, dated 2016)
For at least one compound, name, drawing or mass did not settle the structure.

What was measured:
CDCP1 [1] = test: CDCP1 immunoblot analysis, MDA-MB-231 cells; format: cell-based, human; details: 72 hr
CDCP1 [2] = test: CDCP1 immunoblot analysis, BT549 cells; format: cell-based, human; details: 72 hr
[3] = RU486 1 μM with Dexamethasone 100 nM (FIG. 5C)

Compound	reversal of Dexamethasone block of CDCP1 cleavage (CDCP1 [1]; [3])	reversal of Dexamethasone decrease of total CDCP1 (CDCP1 [2]; [3])	CDCP1 cleavage (cleaved form cCDCP1, p80) (CDCP1 [1]; Dexamethasone 100 nM, Largazole 10 nM (FIG. 5A, 5C))	total levels of CDCP1 (CDCP1 [2]; Dexamethasone 100 nM (FIG. 5C))
CC#C[C@]1(O)CC[C@H]2[C@@H]3CCC4=CC(=O)CCC4=C3[C@@H](c3ccc(N(C)C)cc3)C[C@@]21C [RU486]	partially reversed	reversed	–	–
C[C@@H]1C[C@H]2[C@@H]3CCC4=CC(=O)C=C[C@]4(C)[C@@]3(F)[C@@H](O)C[C@]2(C)[C@@]1(O)C(=O)CO [Dexamethasone]	–	–	blocks CDCP1 cleavage	decreased the total levels of CDCP1
